Patent publication US20230183293A1, “METHODS OF TREATING OR PREVENTING CORONAVIRUS INFECTION” (priority 2021, published 2023)
For some assays here: At least one compound was matched to its structure with a doubt left. Some of these results come from one statement about several compounds together.

Tests used:
[1] = tested on: SARS-CoV-2; format: cell-based; settings: 10 μM, Calu-3, data not shown
[2] = tested on: SARS-CoV-2; format: cell-based

SMILES | infectious progeny titers [1] | reduction in infectious progeny titers [2]
CCC(CC)COC(=O)[C@H](C)N[P@](=O)(OC[C@H]1O[C@@](C#N)(c2ccc3c(N)ncnn23)[C@H](O)[C@@H]1O)Oc1ccccc1 [remdesivir] | just above the limit of detection | –
C=C/C=C/C[C@@H](C)[C@@H](O)[C@H]1C(=O)N[C@@H](CC)C(=O)N(C)CC(=O)N(C)[C@@H](CC(C)C)C(=O)N[C@@H](C(C)C)C(=O)N(C)[C@@H](CC(C)C)C(=O)N[C@@H](C)C(=O)N[C@H](C)C(=O)N(C)[C@@H](CC(C)C)C(=O)N(C)[C@@H](CC(C)C)C(=O)N(C)[C@@H](C(C)C)C(=O)N1C [voclosporin] | – | more than 1 log
